Assay results: publication PMC4377080, “Probing Bunyavirus N protein oligomerisation using mass spectrometry” (Rapid Communications in Mass Spectrometry, 2014)
No constants are given. Whether binding was seen depends on the method and setting.

Amino acid sequences for entries named in this document (tags omitted).
UniProt P16495: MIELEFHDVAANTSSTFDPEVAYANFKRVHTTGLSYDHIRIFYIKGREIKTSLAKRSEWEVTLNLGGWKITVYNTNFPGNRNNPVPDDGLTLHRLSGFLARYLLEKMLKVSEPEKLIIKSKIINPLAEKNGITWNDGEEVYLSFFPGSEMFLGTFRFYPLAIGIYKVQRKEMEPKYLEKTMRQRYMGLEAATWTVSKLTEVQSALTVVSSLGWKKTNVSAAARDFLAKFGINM

Experiments:
[1] = biological target: Bunyamwera virus nucleocapsid (N) protein (Bunyamwera virus) (UniProt P16495); experiment: native MS; nano-ESI-MS of BUNV-N and SBV-N mixed 1:1 (molar) in 50 mM ammonium acetate pH 6.8, in the absence of RNA; both purified
[2] = biological target: Bunyamwera virus nucleocapsid (N) protein (Bunyamwera virus) (UniProt P16495); experiment: condition: only after removal of the bound endogenous RNA with high ionic strength buffers; 10 μM; native MS; nano-ESI-MS of high salt-treated (RNA-free) N protein, 10 μM, 50 mM ammonium acetate pH 6.8; both purified

For “Bunyamwera virus nucleocapsid (N) protein (from UniProt P16495 1-233)”, the binding [1] was “no binding (condition: in the absence of RNA)” and the binding [2] was “no binding”.
